According to article PMC1820829:
Results are given in words; binding and its absence hold for the method and conditions named. Binding seen in cells or lysates may run through a third protein.

By UniProt entry, the sequences of proteins in these tests, tags left out.
UniProt P05804: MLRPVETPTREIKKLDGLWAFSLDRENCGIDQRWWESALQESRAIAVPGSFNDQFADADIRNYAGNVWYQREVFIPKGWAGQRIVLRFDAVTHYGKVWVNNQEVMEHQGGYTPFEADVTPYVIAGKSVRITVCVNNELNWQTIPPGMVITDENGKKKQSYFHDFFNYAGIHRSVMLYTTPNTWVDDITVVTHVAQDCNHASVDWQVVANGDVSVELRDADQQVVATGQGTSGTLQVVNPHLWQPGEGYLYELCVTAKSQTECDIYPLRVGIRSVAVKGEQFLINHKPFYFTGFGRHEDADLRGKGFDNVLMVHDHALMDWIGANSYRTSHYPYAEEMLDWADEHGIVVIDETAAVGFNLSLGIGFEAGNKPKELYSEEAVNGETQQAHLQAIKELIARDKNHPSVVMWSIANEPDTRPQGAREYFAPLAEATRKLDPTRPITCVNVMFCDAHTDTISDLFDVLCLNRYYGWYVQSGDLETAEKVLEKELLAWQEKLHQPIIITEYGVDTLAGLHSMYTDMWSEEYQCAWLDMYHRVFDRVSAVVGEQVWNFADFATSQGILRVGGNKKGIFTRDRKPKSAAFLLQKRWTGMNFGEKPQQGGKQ

Biological target: GUS-YC (UniProt P05804)
Experiment: split reporter; BiFC with Citrine split into YN155 and YC155; co-expression in agroinfiltrated N. benthamiana leaves, intact living tissue observed by confocal microscopy at 46 hpi

binding: no binding
B1: gN-YN (protein, UniProt Q40392 1-1144)
chain: MASSSSSSRWSYDVFLSFRGEDTRKTFTSHLYEVLNDKGIKTFQDDKRLEYGATIPGELCKAIEESQFAIVVFSENYATSRWCLNELVKIMECKTRFKQTVIPIFYDVDPSHVRNQKESFAKAFEEHETKYKDDVEGIQRWRIALNEAANLKGSCDNRDKTDADCIRQIVDQISSKLCKISLSYLQNIVGIDTHLEKIESLLEIGINGVRIMGIWGMGGVGKTTIARAIFDTLLGRMDSSYQFDGACFLKDIKENKRGMHSLQNALLSELLREKANYNNEEDGKHQMASRLRSKKVLIVLDDIDNKDHYLEYLAGDLDWFGNGSRIIITTRDKHLIEKNDIIYEVTALPDHESIQLFKQHAFGKEVPNENFEKLSLEVVNYAKGLPLALKVWGSLLHNLRLTEWKSAIEHMKNNSYSGIIDKLKISYDGLEPKQQEMFLDIACFLRGEEKDYILQILESCHIGAEYGLRILIDKSLVFISEYNQVQMHDLIQDMGKYIVNFQKDPGERSRLWLAKEVEEVMSNNTGTMAMEAIWVSSYSSTLRFSNQAVKNMKRLRVFNMGRSSTHYAIDYLPNNLRCFVCTNYPWESFPSTFELKMLVHLQLRHNSLRHLWTETKHLPSLRRIDLSWSKRLTRTPDFTGMPNLEYVNLYQCSNLEEVHHSLGCCSKVIGLYLNDCKSLKRFPCVNVESLEYLGLRSCDSLEKLPEIYGRMKPEIQIHMQGSGIRELPSSIFQYKTHVTKLLLWNMKNLVALPSSICRLKSLVSLSVSGCSKLESLPEEIGDLDNLRVFDASDTLILRPPSSIIRLNKLIILMFRGFKDGVHFEFPPVAEGLHSLEYLNLSYCNLIDGGLPEEIGSLSSLKKLDLSRNNFEHLPSSIAQLGALQSLDLKDCQRLTQLPELPPELNELHVDCHMALKFIHYLVTKRKKLHRVKLDDAHNDTMYNLFAYTMFQNISSMRHDISASDSLSLTVFTGQPYPEKIPSWFHHQGWDSSVSVNLPENWYIPDKFLGFAVCYSRSLIDTTAHLIPVCDDKMSRMTQKLALSECDTESSNYSEWDIHFFFVPFAGLWDTSKANGKTPNDYGIIRLSFSGEEKMYGLRLLYKEGPEVNALLQMRENSNEPTEHSTGIRRTQYNNRTSFYELING
